Results taken from PMC4007472.

Biological target: T1, Intact FnBPA (with FnBRs 1–11), expressed on S. aureus (S. aureus) (UniProt P14738)
T1 sequence: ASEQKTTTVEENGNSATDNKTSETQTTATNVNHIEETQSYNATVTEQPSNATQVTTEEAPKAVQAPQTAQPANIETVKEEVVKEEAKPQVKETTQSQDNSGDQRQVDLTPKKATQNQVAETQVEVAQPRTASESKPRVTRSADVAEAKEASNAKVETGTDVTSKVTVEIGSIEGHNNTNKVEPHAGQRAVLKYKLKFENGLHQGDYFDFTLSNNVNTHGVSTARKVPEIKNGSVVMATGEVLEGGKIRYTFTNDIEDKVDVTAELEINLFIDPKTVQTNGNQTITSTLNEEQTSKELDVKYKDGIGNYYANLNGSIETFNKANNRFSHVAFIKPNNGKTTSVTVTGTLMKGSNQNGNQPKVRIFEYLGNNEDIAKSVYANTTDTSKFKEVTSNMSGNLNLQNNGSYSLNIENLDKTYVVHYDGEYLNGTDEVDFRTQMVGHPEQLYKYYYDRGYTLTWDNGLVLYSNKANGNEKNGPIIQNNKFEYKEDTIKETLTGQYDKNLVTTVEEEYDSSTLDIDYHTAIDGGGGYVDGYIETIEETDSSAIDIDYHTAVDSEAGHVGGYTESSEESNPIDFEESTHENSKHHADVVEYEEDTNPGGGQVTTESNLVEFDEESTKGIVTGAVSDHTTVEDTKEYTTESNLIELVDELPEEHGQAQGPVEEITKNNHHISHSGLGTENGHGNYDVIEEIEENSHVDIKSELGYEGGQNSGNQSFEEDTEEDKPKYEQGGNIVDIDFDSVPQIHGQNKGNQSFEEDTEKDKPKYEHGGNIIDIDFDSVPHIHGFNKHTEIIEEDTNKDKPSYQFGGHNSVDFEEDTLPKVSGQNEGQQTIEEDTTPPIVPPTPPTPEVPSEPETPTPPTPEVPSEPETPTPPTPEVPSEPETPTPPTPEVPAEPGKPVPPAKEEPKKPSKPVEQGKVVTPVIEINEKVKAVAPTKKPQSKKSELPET
Assay: adherence of bacteria to coated wells (crystal violet); soluble human Fg added at a range of concentrations to S. aureus cells expressing FnBPA constructs on Fn-coated wells; inhibition of adherence; only the binder purified

## Intact human plasma fibrinogen (Fg) (complex)
  binding: binds

No constants are given. Whether binding was seen depends on the method and setting. Binding calls can cover weak binding; strength is not graded here.
